Source: PMC13035864
No constants are given. Whether binding was seen depends on the method and setting. In cells and extracts the contact can be indirect. A yes stands for co-enrichment or nearness to the bait. Other partners may have been found.

By UniProt entry, the sequences of proteins in these tests, tags left out.
UniProt Q9UPY5: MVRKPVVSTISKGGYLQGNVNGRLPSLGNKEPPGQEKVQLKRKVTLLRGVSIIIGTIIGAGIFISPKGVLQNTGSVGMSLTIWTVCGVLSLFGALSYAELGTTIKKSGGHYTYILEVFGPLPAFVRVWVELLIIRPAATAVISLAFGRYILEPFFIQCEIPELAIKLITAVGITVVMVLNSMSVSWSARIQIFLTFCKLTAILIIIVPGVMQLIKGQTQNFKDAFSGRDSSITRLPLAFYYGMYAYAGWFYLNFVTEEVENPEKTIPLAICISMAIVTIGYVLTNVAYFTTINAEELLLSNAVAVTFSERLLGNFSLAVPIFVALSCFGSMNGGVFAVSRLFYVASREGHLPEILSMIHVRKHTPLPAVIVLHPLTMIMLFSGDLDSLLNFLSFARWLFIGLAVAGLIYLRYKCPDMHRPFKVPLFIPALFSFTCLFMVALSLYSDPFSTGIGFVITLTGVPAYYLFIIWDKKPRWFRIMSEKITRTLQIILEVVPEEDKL
UniProt P19474: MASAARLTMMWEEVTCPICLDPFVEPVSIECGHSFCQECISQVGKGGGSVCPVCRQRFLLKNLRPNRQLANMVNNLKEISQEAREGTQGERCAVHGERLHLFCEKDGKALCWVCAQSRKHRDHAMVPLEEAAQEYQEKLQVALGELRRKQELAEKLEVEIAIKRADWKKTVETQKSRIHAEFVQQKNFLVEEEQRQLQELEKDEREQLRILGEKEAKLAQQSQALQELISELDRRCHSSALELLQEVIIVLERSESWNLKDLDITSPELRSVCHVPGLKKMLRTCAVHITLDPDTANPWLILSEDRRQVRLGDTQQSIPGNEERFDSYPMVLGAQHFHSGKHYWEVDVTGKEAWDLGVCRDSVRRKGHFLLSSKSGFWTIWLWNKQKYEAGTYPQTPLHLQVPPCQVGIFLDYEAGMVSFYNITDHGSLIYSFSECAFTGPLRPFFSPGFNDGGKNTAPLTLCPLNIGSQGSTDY

Biological target: SLC7A11 immunoprecipitated from HEK293 cells overexpressing CCDC7_(19-13) (human (endogenous in HEK293)) (UniProt Q9UPY5)
Test: affinity purification with mass spectrometry; SLC7A11 immunoprecipitates from HEK293 cells overexpressing CCDC7_(19-13)

TRIM21 in HEK293 cells overexpressing CCDC7_(19-13) (from UniProt P19474 1-475) (enzyme)
binding: binds
